# In publication PMC5123387:
# Chains of the proteins cited; added tags and fusions are not shown. Residues count along the entry.
# UniProt P37173, residues 23-567: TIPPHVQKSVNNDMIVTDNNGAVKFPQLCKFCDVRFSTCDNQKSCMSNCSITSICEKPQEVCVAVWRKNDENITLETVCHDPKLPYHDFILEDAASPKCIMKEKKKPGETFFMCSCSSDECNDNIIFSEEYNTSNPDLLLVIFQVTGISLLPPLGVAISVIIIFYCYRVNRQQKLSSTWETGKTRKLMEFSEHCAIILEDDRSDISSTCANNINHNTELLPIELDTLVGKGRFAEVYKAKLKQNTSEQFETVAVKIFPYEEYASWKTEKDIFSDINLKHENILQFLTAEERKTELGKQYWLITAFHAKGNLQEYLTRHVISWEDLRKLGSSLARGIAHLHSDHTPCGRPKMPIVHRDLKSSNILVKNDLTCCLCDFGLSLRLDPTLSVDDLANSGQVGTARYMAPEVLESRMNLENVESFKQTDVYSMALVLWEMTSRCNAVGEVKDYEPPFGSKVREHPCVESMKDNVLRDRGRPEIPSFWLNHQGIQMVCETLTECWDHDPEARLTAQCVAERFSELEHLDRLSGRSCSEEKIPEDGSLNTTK
# UniProt P26041: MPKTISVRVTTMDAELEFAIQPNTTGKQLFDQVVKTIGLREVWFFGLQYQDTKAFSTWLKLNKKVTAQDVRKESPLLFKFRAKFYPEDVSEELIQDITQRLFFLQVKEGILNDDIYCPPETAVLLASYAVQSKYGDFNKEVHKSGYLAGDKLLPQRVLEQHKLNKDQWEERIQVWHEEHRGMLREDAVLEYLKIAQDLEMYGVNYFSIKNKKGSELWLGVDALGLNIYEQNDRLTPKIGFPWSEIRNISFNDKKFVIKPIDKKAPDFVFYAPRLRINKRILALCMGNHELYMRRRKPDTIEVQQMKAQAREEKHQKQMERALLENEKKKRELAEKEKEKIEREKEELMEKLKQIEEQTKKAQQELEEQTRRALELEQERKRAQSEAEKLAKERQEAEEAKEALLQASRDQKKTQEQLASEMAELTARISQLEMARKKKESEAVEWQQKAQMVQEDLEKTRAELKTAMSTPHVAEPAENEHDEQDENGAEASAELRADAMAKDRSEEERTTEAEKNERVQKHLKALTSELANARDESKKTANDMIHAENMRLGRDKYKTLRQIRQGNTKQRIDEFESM
# UniProt P26038: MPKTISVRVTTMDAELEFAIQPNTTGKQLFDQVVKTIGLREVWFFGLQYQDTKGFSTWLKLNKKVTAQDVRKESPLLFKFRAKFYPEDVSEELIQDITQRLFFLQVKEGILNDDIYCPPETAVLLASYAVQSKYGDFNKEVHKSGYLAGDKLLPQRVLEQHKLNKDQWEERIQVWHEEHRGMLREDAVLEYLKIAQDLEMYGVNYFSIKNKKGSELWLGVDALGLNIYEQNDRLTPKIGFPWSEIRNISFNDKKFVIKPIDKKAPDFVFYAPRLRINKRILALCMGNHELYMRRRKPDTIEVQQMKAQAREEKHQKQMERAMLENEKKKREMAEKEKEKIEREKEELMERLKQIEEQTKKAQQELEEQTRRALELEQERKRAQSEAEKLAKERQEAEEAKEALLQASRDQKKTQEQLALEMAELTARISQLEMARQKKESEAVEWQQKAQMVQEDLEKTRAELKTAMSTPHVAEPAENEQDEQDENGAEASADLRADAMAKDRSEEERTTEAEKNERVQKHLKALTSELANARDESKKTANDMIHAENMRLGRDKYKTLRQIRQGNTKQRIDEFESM
# Results are given in words; binding and its absence hold for the method and conditions named. In cells and extracts the contact can be indirect. Some binding calls cover weakened binding; strength is not graded here.
# What was measured:
# [1] = biological target: T1, TGF-β receptor II (mouse (endogenous in EL4)) (UniProt Q62312); test: co-IP; immunoprecipitation with anti-TβRII and control immunoglobulin G antibodies of EL4 cell lysates, immunoblot of pulldown and input
# T1 sequence: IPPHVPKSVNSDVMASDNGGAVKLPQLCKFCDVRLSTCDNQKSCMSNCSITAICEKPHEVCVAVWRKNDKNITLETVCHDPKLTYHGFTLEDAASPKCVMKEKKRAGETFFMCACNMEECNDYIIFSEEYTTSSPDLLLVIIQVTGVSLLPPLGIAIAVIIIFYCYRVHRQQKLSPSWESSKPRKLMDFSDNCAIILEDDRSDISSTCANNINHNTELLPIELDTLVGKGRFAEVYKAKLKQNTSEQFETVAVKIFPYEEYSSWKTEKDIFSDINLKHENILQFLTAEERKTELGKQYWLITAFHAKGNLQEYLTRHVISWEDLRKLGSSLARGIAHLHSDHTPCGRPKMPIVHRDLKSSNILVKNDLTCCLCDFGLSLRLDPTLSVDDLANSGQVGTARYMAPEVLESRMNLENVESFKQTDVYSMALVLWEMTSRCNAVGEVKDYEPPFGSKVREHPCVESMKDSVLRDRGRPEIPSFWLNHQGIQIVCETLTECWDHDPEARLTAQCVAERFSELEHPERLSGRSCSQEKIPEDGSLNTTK
# [2] = biological target: TβRII-tagged with haemagglutinin at the carboxy terminus (UniProt P37173); test: co-IP; HEK293FT cells co-transfected with Msn-WT-CFP and TβRII-HA; immunoprecipitation of solubilised proteins with anti-GFP and anti-HA antibodies, immunoblot
binding [1],Substance,binding [2]
binds,moesin (from UniProt P26041 1-577),–
–,wild-type moesin-tagged with CFP at the carboxy terminus (from UniProt P26038 1-577),binds
